Reference: PubChem BioAssay AID1259405 (NCATS, 2018)
Here is an unselected part of about 50,000 reagents. Over the whole deposit, about 4,000 (8%) got an active call. 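Mouse siRNA library applied to hamster cells; one well for each siRNA.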 Entries without a mark were called inactive. Reagents against one gene are numbered here. Further read-outs or replicates are left out here. No sequences are given here.

Aim: 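Knock-downs that lift recombinant protein yield in hamster ovary cells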 (primary screen)
Cell system: Chinese hamster CHO-K1 ovary cells with stable secreted eGFP expression
Knock-down reagent: single siRNA against mouse genes, 0.8 pmol siRNA per well (2 µl of 400 nM stock)
Time to read-out: 3 days
Read-out: 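Per-well intracellular GFP measured by laser scanning cytometry, plus viability from ATP luminescence, each relative to plate median of non-targeting control wells, in %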
Scale: GFP, % of control: higher = more GFP per well, higher productivity
Call rule: 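a knock-down is called active if GFP reaches 120% or more of non-targeting control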

GFP, % of control, by target and reagent
Ets1 (Ets proto-oncogene 1, transcription factor): #1 76.2; #2 69; #3 52.7
Map3k14 (mitogen-activated protein kinase kinase kinase 14): #1 79.5
Rab1b (RAB1B, member RAS oncogene family): #1 80.4; #2 85.1; #3 52.9
Commd4 (COMM domain containing 4): #1 57; #2 148 (active); #3 106
Snx21 (sorting nexin family member 21): #1 46.5; #2 90.4; #3 87.7
Mapk4 (mitogen-activated protein kinase 4): #1 72.6
Azgp1 (alpha-2-glycoprotein 1, zinc): #1 94.6; #2 63.9; #3 69.3
Snhg11 (small nucleolar RNA host gene 11): #1 44.1; #2 91.4; #3 102
Enkd1 (enkurin domain containing 1): #1 98.4; #2 38.3; #3 108
St3gal5 (ST3 beta-galactoside alpha-2,3-sialyltransferase 5): #1 98.8; #2 88.1; #3 81.5
Mcl1 (myeloid cell leukemia sequence 1): #1 87.9; #2 27.8; #3 45.2
Stoml3 (stomatin (Epb7.2)-like 3): #1 76.9; #2 75.1; #3 56.2
Tmem165 (transmembrane protein 165): #1 105; #2 84.4; #3 55.2
